Measured values taken from PubChem BioAssay AID1259354 (Paczesny and Yang Labs, IUPUI and University of Michigan, 2018).
“And” between values parts separate entries of the source, which are not always exact repeats. Equal values may be shown once. Among all 78,000 compounds or so, about 1,800 (2.3%) were called active. Inconclusive means that the source gave no clear call. Such entries were picked first, then a sample of the others. No stated cut-off is given here; in the data, active means inhibition above about 30%; inconclusive means mostly about 10% to 28%; inactive means weaker than that.

Protein sequences, listed by entry. Tags and fused reporters are not part of them. Lines headed by an entry give the natural chain unless they say otherwise; changes in a name come on top.
UniProt Q01638: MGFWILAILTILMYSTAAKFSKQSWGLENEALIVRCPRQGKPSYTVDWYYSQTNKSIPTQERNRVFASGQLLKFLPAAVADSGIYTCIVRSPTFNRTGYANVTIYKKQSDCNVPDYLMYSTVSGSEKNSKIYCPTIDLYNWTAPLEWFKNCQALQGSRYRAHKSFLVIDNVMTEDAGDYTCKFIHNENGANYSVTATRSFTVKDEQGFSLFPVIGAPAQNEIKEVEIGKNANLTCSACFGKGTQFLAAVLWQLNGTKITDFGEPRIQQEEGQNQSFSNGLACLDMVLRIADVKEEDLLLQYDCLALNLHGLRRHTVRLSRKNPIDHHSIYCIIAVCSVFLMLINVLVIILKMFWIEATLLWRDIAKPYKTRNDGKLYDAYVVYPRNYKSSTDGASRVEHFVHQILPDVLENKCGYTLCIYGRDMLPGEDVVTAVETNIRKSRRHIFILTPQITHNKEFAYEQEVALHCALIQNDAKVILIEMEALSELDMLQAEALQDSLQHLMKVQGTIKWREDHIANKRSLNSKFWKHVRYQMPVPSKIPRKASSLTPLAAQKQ

What follows are compounds tested against Interleukin-1 receptor-like 1 (Homo sapiens) (UniProt Q01638) (assay: blocks human ST2 binding to IL-33, primary screen, biochemical, AlphaLISA (AID 1259354)). Conditions: AlphaLISA ST2-Fc/biotin-IL-33 interaction, 1 h; at 17 µM, stronger effect = higher value.

| SMILES | inhibition |
| --- | --- |
| CCCN(c1ccc(C(C)C)cc1)S(=O)(=O)c1cccc2nsnc12 | inconclusive: 13% |
| CC(=O)N1CCC(C(=O)NC[C@@H]2C=C(C)[C@H](CC(=O)N(C)Cc3ccccc3)C[C@H]2C(C)C)CC1 | inconclusive: 10% |
| CC(C(=O)N1CCC(CCC(=O)NCc2cccc(Cl)c2)CC1)n1cncn1 (centres undefined) | inactive |
| O=S(=O)(Nc1ccccn1)c1ccc(N=Cc2ccccc2C(F)(F)F)cc1 | inconclusive: 17% |
| COc1ccc(C(=O)Nc2cccc(NC(=O)c3ccccc3C)c2)cc1[N+](=O)[O-] | inconclusive: 11% |
| COc1ccc(OC)c(C2C(N3C(=O)c4ccccc4C3=O)C(=O)N2c2ccc(C)cc2)c1 (centres undefined) | inconclusive: 10% |
| CCCOc1ccccc1/C=C/c1[nH]c(=O)[nH]c(=O)c1[N+](=O)[O-] | inconclusive: 15% |
| CCOC(=O)C1(Cc2ccccc2Cl)CCN(Cc2ccc(NC(C)=O)cc2)CC1 | inconclusive: 19% |
| COc1cccc(CN2CCN(Cc3ccc(OC)cc3F)CC2=O)c1 | inconclusive: 12% |
| CSC(=CC(=O)c1ccc([N+](=O)[O-])cc1)SC | inconclusive: 17% |
| CCOC(=O)c1c(NC(=O)C(C(C)C)N2C(=O)c3ccccc3C2=O)sc(C(C)=O)c1C (centres undefined) | inconclusive: 10% |
| Cc1cccc(NC(c2cccc([N+](=O)[O-])c2)c2ccc3ccc(C)nc3c2O)n1 (centres undefined) | inconclusive: 24% |
| CCn1c(CC2CCN(Cc3cnc(-c4ccco4)nc3)CC2)n[nH]c1=O | inactive |
| CC(=O)c1cccc(NS(=O)(=O)c2c(C)[nH]c(=O)[nH]c2=O)c1 | inactive |
| CC(C)C[C@@H](NC(=O)[C@@H]1C[C@@H](NC(=O)c2cnccn2)CCN1C(=O)COCC(=O)O)C(N)=O | inconclusive: 20% |
| O=C(CN1C(=O)/C(=C\c2ccc(Cl)cc2)Sc2ccccc21)NCCCN1CCOCC1 | inconclusive: 27% |
| Cc1ccc(C(=O)N(C)CCC2CCOCC2)s1 | inconclusive: 10% |
| CCc1nc(NN)c2c3c(sc2n1)CCC3 | inconclusive: 14% |
| CC(C)N1C(=O)S/C(=C\c2ccc(-c3cccc(C(=O)O)c3)o2)C1=O | inactive |
| O=C1S/C(=C/C=C/c2ccc([N+](=O)[O-])cc2)C(=O)N1c1ccccc1 | inconclusive: 17% |
| COc1ccc(CNc2oc(COc3ccc(Br)cc3)nc2C#N)cc1 | inconclusive: 25% |
| c1cc(CN2CCCCCCC2)cs1 | inactive |
| Cc1ccc(-c2noc([C@@H]3C[C@@H](O)CN3C3CCCCC3)n2)cc1F | inconclusive: 12% |
| O=C(O)C1CC=C(Cl)CC1C(=O)NCC1OCCc2ccccc21 (centres undefined) | inactive |

A draw from above in order of count of non-hydrogen atoms, largest number first:

| SMILES | inhibition |
| --- | --- |
| CC(=O)N1CCC(C(=O)NC[C@@H]2C=C(C)[C@H](CC(=O)N(C)Cc3ccccc3)C[C@H]2C(C)C)CC1 | inconclusive: 10% |
| CC(C(=O)N1CCC(CCC(=O)NCc2cccc(Cl)c2)CC1)n1cncn1 (centres undefined) | inactive |
| CCCOc1ccccc1/C=C/c1[nH]c(=O)[nH]c(=O)c1[N+](=O)[O-] | inconclusive: 15% |
| Cc1ccc(C(=O)N(C)CCC2CCOCC2)s1 | inconclusive: 10% |

The listing continues.

| SMILES | inhibition |
| --- | --- |
| c1coc(-c2nc(CNC3CCC4(CCNCC4)CC3)no2)c1 | inconclusive: 14% |
| COc1cc(Cl)ccc1C(=O)NCc1cccnc1N(C)C | inconclusive: 16% |
| Cc1c(Cl)c([N+](=O)[O-])nn1CCCC(=O)Nc1ccc(C#N)cc1 | inconclusive: 12% |
| COc1ccc(CNC(=O)[C@@H](C)[C@@H]2CCc3c(C)cc(OCCN4CCOCC4)c(C)c3C2)cc1 | inactive |
| OC1CCN(Cc2ccc(F)cc2)CC1 | inactive |
| Cc1cccn2c(=O)c3cc(C(=O)Nc4ccccc4C(N)=O)n(C)c3nc12 | inconclusive: 10% |
| Cc1nc(Oc2ccc(F)cc2)c(C(N)=O)c(C)c1Cl | inactive |
| COc1cccc2c1OC1(C)CC2NC(=O)N1c1ccc(Br)cc1 (centres undefined) | inactive |
| CCCC(=O)N1c2ccccc2NC2=C(C(=O)CCC2)C1c1ccco1 (centres undefined) | inconclusive: 12% |
| Clc1ncnc2c1C(c1ccccc1)c1c(Cl)ncnc1O2 | inactive |
| COc1cc2c(C(=O)N3CCN(c4ccccc4OC)CC3)cn(C)c(=O)c2cc1OC | inconclusive: 17% |
| CC1=C(C(=O)Nc2ccc(F)cc2F)C(c2ccc(C)cc2)C2=C(CC(C)(C)CC2=O)N1 (centres undefined) | inconclusive: 11% |
| C(#CC1(N2CCOCC2)CCCC1)c1ccccc1 | inconclusive: 14% |
| NC(=O)c1ccc(N2CCOCC2)c(N)c1 | inconclusive: 11% |
| O=S(=O)(N[C@H]1CO[C@H]2[C@@H]1OC[C@@H]2Nc1nccc(C2CCCC2)n1)c1cccc2cccnc12 | inconclusive: 24% |
| O=C1CCC(=O)N1CCC(c1ccccc1)c1ccc2c(c1)OCO2 (centres undefined) | inactive |
| CCn1c2ccccc2c2cc(C=Nc3ccc(NC(C)=O)cc3)ccc21 | inactive |
| COc1ccc2cc3cc(C(=O)N4CCC5(CC4)OCCO5)oc3nc2c1 | inconclusive: 17% |
| O=C(NCc1csc(-c2cnccn2)n1)c1cnn2c1CCCC2 | inconclusive: 13% |
| CC(C)c1cc(CN2CCN(Cc3ccsc3)C(CCO)C2)[nH]n1 (centres undefined) | inactive |
| COC(=O)C1C(=O)C2=C(CC1C)NC(C)=C(C(=O)OCCOC(C)C)C2c1ccc(C)s1 (centres undefined) | inactive |
| Cc1ccsc1[C@@H]1CCN(C(=O)c2coc3c2C(=O)CCC3)C[C@H]1O | active: 32% |
| Cc1nc2sccn2c1CN1CCC(N2CCCC2=O)CC1 | inconclusive: 14% |
| Clc1ccccc1COc1ccc(Br)cc1 | inactive |

| SMILES | inhibition |
| --- | --- |
| CCOCC(=O)Nc1c(C(=O)Nc2ccc(F)cc2)oc2ccccc12 | inactive |
| N#Cc1ccccc1N1C(=O)C2C3c4ccccc4C(c4ccccc43)C2C1=O (centres undefined) | inactive |
| COc1ccc(OC)c(C2CC(=O)N3CN(c4ccc(C)cc4)CSC3=C2C#N)c1 (centres undefined) | inconclusive: 14% |
| COc1cc(/C=C2/SC(=O)NC2=O)cc(Br)c1O | inconclusive: 20% |
| CCc1cccc(CC)c1N(COC)C(=O)Cn1cnc2ccccc21 | inconclusive: 11% |
| Cc1ccc(-n2c(SCC(=O)c3ccc(Cl)cc3)nc3c(c2=O)SCC3)cc1 | inconclusive: 14% and inconclusive: 11% |
| O=C(CCc1nc(-c2ccccc2F)no1)Nc1cnc2ccccc2c1 | inactive |
| NC(=O)C1CCN([C@H]2[C@@H]3OC[C@@H](O3)[C@@H](NCc3ccc4c(c3)OCO4)[C@@H]2O)CC1 | inconclusive: 13% |
| CC1NC(=O)CC(c2ccccc2)NC1c1ccccc1 (centres undefined) | inconclusive: 11% |
| O=C(NCc1ccccc1)C1CCCN(S(=O)(=O)c2cnc[nH]2)C1 (centres undefined) | inconclusive: 14% |
| CN1CCN(C)C2(CCN(C(=O)c3c(O)ccc4ccccc34)CC2)C1 | inconclusive: 12% |
| CCn1c(=N)c(C(=O)NC)cc2c(=O)n3ccccc3nc21 | inactive |
| CC(COc1ccccc1)NCCn1ncc2ccccc2c1=O (centres undefined) | inconclusive: 10% |
| Nc1ccccc1N=Cc1cc(Br)cc(Cl)c1O | inactive |
| CC(=O)NCCn1ccnc1-c1ccc(-c2ccco2)cc1 | inactive |
| CC(=O)Nc1cccc(NC(=O)Cc2ccccc2)c1 | inconclusive: 22% |
| O=C(c1cn(CCc2ccccc2)nn1)N1CCCC1c1nc2ccc(F)cc2[nH]1 (centres undefined) | inactive |
| CCc1nc(C)c(C(=O)N2CCCN(C)C3(CCN(C)CC3)C2)o1 | inconclusive: 18% |
| COc1ccc(-c2ccc3[nH]nc(N)c3c2)cn1 | inconclusive: 14% |
| O=S(=O)(N=C(Nc1ccccn1)c1ccccc1)c1ccccc1 | inconclusive: 12% |
| Cc1nc2ccc(NC(=O)N3CCN(c4ccccc4)CC3)cc2nc1C | inactive |
| CCc1sc(C(=O)O)cc1-c1ccc(C(N)=O)cc1 | inconclusive: 25% |
| CC(=O)Nc1ccc(S(=O)(=O)N2C[C@@H]3C[C@H](C2)c2c(-c4ccc5ccccc5c4)ccc(=O)n2C3)cc1 | inconclusive: 17% |
| CCOCCCNC(=O)c1cc(-c2ccncc2)nc2ccccc12 | inconclusive: 16% |

| SMILES | inhibition |
| --- | --- |
| Cn1c(=O)c2c(nc(N3CCCCCC3)n2CC(O)COc2ccc(Cl)cc2)n(C)c1=O (centres undefined) | inactive |
| O=C1NN(c2ccccc2)C(=O)/C1=C/c1cc(Cl)c(O)c(Cl)c1 | inconclusive: 26% |
| O=C(C1=C(O)C(=O)N(Cc2cccnc2)C1c1cccc([N+](=O)[O-])c1)c1cccs1 (centres undefined) | inactive |
| CC(=O)NCCc1c[nH]c2ccc(OCc3ccccc3)cc12 | inconclusive: 14% |
| COc1ccc(/C=c2\sc3nc(-c4ccc(OC)cc4)nn3c2=O)cc1 | inconclusive: 15% |
| CC1=C[C@@H](CN(C)CCC#N)[C@H](C(C)C)C[C@H]1Cc1nnc(-c2ccccc2)o1 | inconclusive: 17% |
| O=C(NCc1ccc2c(c1)OCO2)c1ccc2c(c1)ncn2C1CCCC1 | inactive |
| O=C(c1ccc(Cl)cc1OC1CCN(C2Cc3ccccc3C2)CC1)N1CCCCC1 | inconclusive: 15% |
| CC(CC#CCN1CCOCC1)OC(C)(C)C (centres undefined) | inactive |
| COc1cccc(NC(=O)c2nn(-c3ccc(Cl)cc3)c(=O)c3ccccc23)c1 | inactive |
| Cc1cc(C)c(CSc2nnc(C)s2)c(C)c1 | inactive |
| CCN1CCc2c(sc(NC(=O)c3ccc(Cl)s3)c2C(=O)OC)C1 | inconclusive: 14% |
| Cc1ccc(NS(=O)(=O)c2ccc3c4c(cccc24)C(=O)N3)cc1C | inactive |
| COc1ccc(N2CCN(C(=O)c3ccc4nc5cc(Cl)ccc5c(=O)n4c3)CC2)cc1 | inactive |
| CC(=O)Nc1cccc(N2CCCC2=O)c1 | inconclusive: 11% |
| Cc1cc(NC(=O)c2cc(C3CC3)on2)n(-c2ccccc2)n1 | inconclusive: 13% |
| O=C(O)[C@H]1C[C@H](C(=O)NC2CC2)CN(Cc2cccc(C(F)(F)F)c2)C1 | inactive |
| CC(C)=CCc1c(O)c(CC=C(C)C)c2occ(-c3ccc(O)c(O)c3)c(=O)c2c1O | inconclusive: 16% |
| O=C(CNS(=O)(=O)c1ccc(Br)s1)NCc1cccnc1 | inactive |
| CCc1csc(CNC(=O)C2CC(=O)N(CC(C)C)C2)n1 (centres undefined) | inconclusive: 24% |
| O=c1[nH]nc(Cc2ccc(O)cc2)n1Cc1ccc(Cl)cc1 | inconclusive: 13% |
| Cc1cc(C)[n+](C)n1-c1ccccc1 | inconclusive: 10% |
